# Laboratory results published in PubChem BioAssay AID624297 (National Center for Advancing Translational Sciences (NCATS), 2012).
# Out of some 340,000 compounds screened, about 6,200 (1.8%) were called active. The shares of active, inactive and inconclusive entries below differ from those in the screen. Calls come from the whole dose curve; as a rule, active = well fitted activation curve with a large enough effect; inconclusive = small, poorly fitted or top-dose-only effect; inactive = no such curve, though single readings can be large or run the other way. Potencies beside an inconclusive call are fits to weak or partial responses and may not hold up.
# Experiment: A quantitative high throughput screen for small molecules that induce DNA re-replication in SW480 colon adenocarcinoma cells. For re-replication activation: % of control where 0% means no effect. Note: nearly all actives have a fitted effect of over 55% in size.
# Conditions: Hoechst DNA content imaging, 48 h; re-replication activation: at 46.1 µM (top of the series) unless noted
# Method in brief: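 Image-based DNA-content assay: after two days of treatment, nuclei were labelled with the DNA dye Hoechst and imaged, and hits were compounds raising the count of nuclei showing high fluorescence intensity.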
# Potency is the fitted concentration of half-maximal effect.
SMILES,Potency,re-replication activation
N#Cc1sc2nc(-c3ccccc3)cc(-c3ccco3)c2c1N,"inconclusive: 23.1 µM [activator, single point]",–
Cc1ccc(C)c(NC(=O)C(Sc2nc3ccc(C)cc3[nH]2)c2ccccc2)c1 (stereo not given),"inconclusive: 29.1 µM [activator, single point]",–
CCCCN(C(=O)C1=CC=CN2CCS(=O)(=O)N=C12)c1ccccc1,inactive,–
CCOc1cc(/C=C2\COc3ccccc3C2=O)ccc1OCC(=O)N(C)C,active: 14.6 µM,–
CCCN1CCN(C(=S)Nc2ccc(SC(F)F)cc2)CC1,inactive,–
O=C(c1ccc([N+](=O)[O-])s1)N1CCN(c2ccccn2)CC1,"inconclusive: 18.4 µM [activator, single point]",–
COc1ccc2[nH]c(=O)c(CNc3ccc(C)cc3C)cc2c1,"inconclusive: 11.6 µM [activator, partial curve, poor fit]",–
O=C(NCc1n[nH]c(=O)c2ccccc12)C1CC(=O)N(c2ccccc2)C1 (stereo not given),"inconclusive: 32.6 µM [activator, single point]",–
O=C(Nc1ccc(-c2csc(Nc3ccc(Cl)cc3)n2)cc1)c1ccccc1,inactive,–
COCn1c(-c2ccc(OC)cc2)nc2ccccc21,inactive,–
Cc1ccc2c(N)c(C(=O)N(c3ccccc3)c3ccccc3)sc2n1,"inconclusive: 3.26 µM [activator, full curve, poor fit]",–
Oc1c(Br)cc(C=Nc2ccc3nc(-c4ccccc4)[nH]c3c2)c(O)c1Br,"inconclusive: 18.4 µM [activator, single point]",–
CC(C)(C)c1ccc(COC(=O)Nc2ccc(F)cc2)cc1,"inconclusive: 2.59 µM [activator, single point]",–
C=C(C)C(=O)O[C@H]1C/C(C)=C\C(=O)/C=C(\C)[C@H](O)[C@@H]2OC(=O)C(=C)[C@@H]21,"inconclusive: 0.259 µM [activator, full curve, poor fit]",–
O=C(Nc1ccc(Br)cc1)c1cc(-c2cccs2)on1,"inconclusive: 29.1 µM [activator, single point]",–
CC(C)(C)c1ccc(/C=N/OCC(=O)NCc2ccccc2)cc1,"inconclusive: 29.1 µM [activator, single point]",–
COCCCNC(=S)N1CCN(c2nc(-c3ccc(F)cc3)cs2)CC1,"inconclusive: 2.59 µM [activator, full curve, poor fit]",–
CCS(=O)(=O)Nc1ccc(-c2cc(-c3ccccc3)c3cc(C)ccc3n2)cc1,"inconclusive: 16.4 µM [activator, partial curve, poor fit]",–
COc1c(O[C@H]2O[C@@H](CO)[C@@H](O)[C@@H](O)[C@@H]2O)cc2c(c1OC)-c1ccc(SC)c(=O)cc1[C@H](NC(C)=O)CC2,inactive,–
Cc1ccc(CNC(=O)C2CCCN(Cc3cnn(-c4ccccc4)c3-n3cccc3)C2)cc1 (stereo not given),"inconclusive: 18.4 µM [activator, partial curve, poor fit]",–
O=C(CC1C[C@H](C(=O)N2CCCCC2)[C@@]2(CCc3ccccc3)c3[nH]c4ccccc4c3CCN2C1=O)NCCC1=CCCCC1 (stereo not given in full),"inconclusive: 29.1 µM [activator, single point]",–
Cn1nc(C(=O)Nc2ccc(-n3cnnn3)cc2)c2ccccc2c1=O,inactive,–

SMILES,Potency,re-replication activation
Cc1ccc(NC2=CC(=O)CC(C)(C)C2)cc1Cl,"inconclusive: 29.1 µM [activator, partial curve, poor fit]",–
O=C(/C=C/Nc1cccc([N+](=O)[O-])c1)c1ccco1,inactive,–
CC(C)(C)[C@@H]1COC(=O)[C@H](Cc2ccc(F)cc2)CC/C=C\C[C@@H](CC(=O)NCCO)C(=O)N1,"inconclusive: 0.116 µM [activator, full curve, poor fit]",–
Nc1ncnc2c1ncn2[C@@H]1O[C@H](CNCC#Cc2ccccc2)[C@@H](O)[C@H]1O,"inconclusive: 0.58 µM [activator, partial curve, poor fit]",–
CCN1C(=O)[C@@H]2[C@H](C1=O)[C@@H]1C(=O)Nc3ccccc3C(=O)N1[C@@H]2c1ccccc1,"inconclusive: 29.1 µM [activator, single point]",–
CCOC(=O)CC1C(=O)NCCN1C(=O)c1ccc(Cl)c(Cl)c1 (stereo not given),inactive,–
CSc1nnc(-c2ccc(C(F)(F)F)nc2C)o1,"inconclusive: 2.91 µM [activator, partial curve, poor fit]",–
COc1cccc(CN2CCN(Cc3nc(-c4cccs4)oc3C)CC2CCO)c1 (stereo not given),"inconclusive: 6.51 µM [activator, single point]",–
COc1cccc(Cn2cccc(NC(=O)Nc3cccc(C#N)c3)c2=O)c1,"inconclusive: 14.6 µM [activator, partial curve, poor fit]",–
CCOC(=O)C#CC(CCc1ccccc1)OS(N)(=O)=O (stereo not given),inactive,–
COc1ccc(CN2CCC(n3nccc3NC(=O)CCOc3ccccc3)CC2)cc1C,"inconclusive: 16.4 µM [activator, single point]",–
CCCn1c(N)c(C(=O)CSc2nc(C)nc3sc(C)c(C)c23)c(=O)[nH]c1=O,inactive,–
CC(Oc1ccc(Cl)cc1Cl)c1ccn[nH]1 (stereo not given),inactive,–
Cc1cccc(C)c1OCC(=O)Nc1nnc(C2CCCO2)s1 (stereo not given),"inconclusive: 20.6 µM [activator, partial curve, poor fit]",–
O=C1NC(=O)C(c2ccccc2)(c2ccccc2)N1,"inconclusive: 0.316 µM [activator, partial curve, poor fit]",–
COc1cccc(/C=C/C(=O)NNC(=O)c2ccccc2)c1OC,inactive,–
CCn1c(SCC(=O)NC2CCCCC2)nnc1C(C)NC(=O)c1ccccc1F (stereo not given),"inconclusive: 1.58 µM [activator, full curve, poor fit]",–
Cc1ccc(C2(CC(=O)N3CCCC3)CCOC(C(C)C)C2)cc1 (stereo not given),inactive,–
Cc1noc(C)c1COc1ccc(C(=O)NCCOc2ccccc2)cc1,"inconclusive: 29.1 µM [activator, partial curve, poor fit]",–
Cc1cc(C)c2oc(C(=O)Nc3ccc(S(=O)(=O)Nc4nccs4)cc3)cc(=O)c2c1,"inconclusive: 4.11 µM [activator, full curve]",–
CC(C)(O)c1ccccc1CC[C@@H](SCC1(CC(=O)O)CC1)c1cccc(/C=C/c2ccc3ccc(Cl)cc3n2)c1,"inconclusive: 11.2 µM [activator, single point]",–
O=C(O)C(=O)/C(=C\c1ccc(Cl)cc1)c1ccc2ccccc2n1,"inconclusive: 29.1 µM [activator, single point]",–

SMILES,Potency,re-replication activation
CN1C2=NCCN2C(=O)c2cc(Cl)ccc21,"inconclusive: 29.1 µM [activator, partial curve, poor fit]",–
CCCCc1cc(=O)oc2cc(C)cc(OCC(=O)Nc3ccccn3)c12,"inconclusive: 0.206 µM [activator, full curve, poor fit]",–
COc1cc(C(=O)N(C)Cc2cccc(OC)c2OC)ccc1OCC(=O)Nc1cccc(C(F)(F)F)c1,"inconclusive: 5.17 µM [activator, partial curve]",–
Cc1ccc(C(=O)NCN2CCN(c3ccc(F)cc3)CC2)cc1,"inconclusive: 1.84 µM [activator, partial curve]",–
CCOc1ccc(CCNC(=O)COC(=O)c2c(C)nn(-c3ccccc3)c2C)cc1OCC,inactive,–
Cc1nc2ccccc2c2c1C(=O)N(C)C2=O,"inconclusive: 0.259 µM [activator, full curve, poor fit]",–
C=CCc1ccc(OCC(O)CN2CCN(c3ccccc3OC)CC2)c(OC)c1 (stereo not given),"inconclusive: 11.6 µM [activator, partial curve]",–
Cc1c(C(=O)Nc2ccccc2)cn2c(nc3ccccc32)c1C#N,"inconclusive: 23.1 µM [activator, single point]",–
CC(=O)c1ccc(NC(=O)CN2CCN(S(=O)(=O)c3ccc4ccccc4c3)CC2)cc1,–,inconclusive: 465% [activator]
Cc1ccccc1C(C(=O)NCc1ccco1)N(CC1CCCO1)C(=O)Cn1nnc2ccccc21 (stereo not given),inactive,–
CS(=O)(=O)Nc1cccc(C2=NN(S(=O)(=O)c3ccccc3)C(c3cccs3)C2)c1 (stereo not given),"inconclusive: 29.1 µM [activator, single point]",–
O=C(NCc1cc(C(F)(F)F)cc(C(F)(F)F)c1)C1CC(c2ccc(C(F)(F)F)cc2)=NO1 (stereo not given),–,inactive: -29.6% [at 9.22 µM]
CCC/C=C1/CCCOC(C(=O)NCc2ccc(C)o2)(C(F)(F)F)C1 (stereo not given),"inconclusive: 29.1 µM [activator, single point]",–
CCN(CC)CCNC(=O)c1ccc(NC(=O)C2CC(=O)N(c3ccc4c(c3)OCCO4)C2)cc1 (stereo not given),"inconclusive: 18.4 µM [activator, single point]",–
Cc1ccc(Cl)cc1NC(=O)N[C@@H](CC(C)C)C(=O)O,inactive,–
COc1ccc(Nc2nc(N3CCN(S(=O)(=O)N(C)C)CC3)nc3ccccc23)cc1,inactive,–
COc1ccc(N2C3=C(CC4=C2CC(C)(C)CC4=O)C(=O)CC(C)(C)C3)cc1,inactive,–
C=CCn1c(SCC(=O)Nc2c(C)n(C)n(-c3ccccc3)c2=O)nnc1-c1cccnc1,inactive,–
O=C(OCCOc1ccc(Cl)cc1)c1cc(S(=O)(=O)N2CCCCC2)ccc1N1CCOCC1,inactive,–
S=C(Nc1ccccc1)c1ccccn1,"inconclusive: 18.4 µM [activator, single point]",–
CCN(CC)c1ccc(/C=N/NC(=O)c2cccc(N3CCCC3=O)c2)cc1,"inconclusive: 16.4 µM [activator, single point]",–

# Full records, looked up by structure. Values in the order: Potency	re-replication activation
# `Cc1c(C(=O)Nc2ccccc2)cn2c(nc3ccccc32)c1C#N` is listed with inconclusive: 23.1 µM [activator, single point]	–
# `Cc1ccccc1C(C(=O)NCc1ccco1)N(CC1CCCO1)C(=O)Cn1nnc2ccccc21` (stereo not given) is listed with inactive	–
# `CC(=O)c1ccc(NC(=O)CN2CCN(S(=O)(=O)c3ccc4ccccc4c3)CC2)cc1` is listed with –	inconclusive: 465% [activator]
# `Cc1ccc(C2(CC(=O)N3CCCC3)CCOC(C(C)C)C2)cc1` (stereo not given) is listed with inactive	–
